Data from patent US20200102347A1 (AUCTUS BIOLOGIES, published 2020).
Positions count from the first letter of the chain named. Results are given in words; binding and its absence hold for the method and conditions named. Some entries that bind do so weakly or less than the wild type. For some of these results: Where a sequence is shown, tags or fusion partners need not be part of it.

T1: NativeRPtag(large)_with_Tags_and_Cys (Thermoanaerobacter tengcongensis)
T1 sequence: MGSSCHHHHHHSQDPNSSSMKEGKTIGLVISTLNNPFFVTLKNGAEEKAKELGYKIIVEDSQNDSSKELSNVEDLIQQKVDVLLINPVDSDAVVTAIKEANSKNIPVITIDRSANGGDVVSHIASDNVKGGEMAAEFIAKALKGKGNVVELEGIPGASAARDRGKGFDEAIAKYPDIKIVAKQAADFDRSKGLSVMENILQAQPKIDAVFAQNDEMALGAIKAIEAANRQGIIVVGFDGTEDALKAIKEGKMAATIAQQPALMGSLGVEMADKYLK

T2: MaturePDGF-β_NterminalPeptide
T2 construct: an N-terminal G was added and is left out of the numbering; also called PDGF-β peptide
T2 peptide: RhodamineB-GSLGSLTIAEPAMIAE

T3: RPtag(small) Nd2, Cd4 (Thermoanaerobacter tengcongensis)
T3 peptide: RhodamineB-KIPNFIPAELKLITK

B1: RPtag(small) Nd8Cd4-labeled alkaline phosphatase (enzyme)
chain: PAELKLITK
B2: d126l (designed binder)
single chain: T1 sequence with D126L
B3: d126i (designed binder)
single chain: T1 sequence with D126I
B4: k129l (designed binder)
single chain: T1 sequence with K129L
B5: g130i (designed binder)
single chain: T1 sequence with G130I
B6: l266n (designed binder)
single chain: T1 sequence with L266N
B7: l266e (designed binder)
single chain: T1 sequence with L266E
B8: l266k (designed binder)
single chain: T1 sequence with L266K
B9: l266r (designed binder)
single chain: T1 sequence with L266R
B10: g130l (designed binder)
single chain: T1 sequence with G130L

Target: T1, NativeRPtag(large)_with_Tags_and_Cys (Thermoanaerobacter tengcongensis)
Test: ELISA-type plate assay, CSPD and p-nitrophenyl phosphate read-outs

Binder | binding
B1 | binds

Target: T2, MaturePDGF-β_NterminalPeptide
Test: fluorescence anisotropy; 20 nM rhodamine PDGF-β N-terminal peptide, unlabeled RPtag large variant titrated; bar of Ka = 1/Kd, left axis

Binder | binding
B2 | binds
B3 | binds
B4 | binds
B5 | binds
B6 | binds
B7 | binds
B8 | binds
B9 | binds

Target: T1, NativeRPtag(large)_with_Tags_and_Cys (Thermoanaerobacter tengcongensis)
Test: ELISA-type plate assay; RPtag (large) immobilized by maleimide, 12.4 µM fusion protein, detection with pNPP (left) and CSPD (right)

Binder | binding
B1 | binds

Target: T3, RPtag(small) Nd2, Cd4
Test: fluorescence anisotropy; 2 nM rhodamine Nd2Cd4, unlabeled RPtag large variant titrated; bar of Ka = 1/Kd, right axis

Binder | binding
B2 | binds
B3 | binds
B4 | binds
B10 | binds
B5 | binds
B6 | binds
B7 | binds
B8 | binds
B9 | binds
